{
  "source": "patent US11919905B2",
  "about": "“Substituted benzo[f]imidazo[1,2-a][1,4]diazepines as anesthetics” (HANGZHOU ADAMERCK PHARMLABS INC., priority 2017, dated 2024)",
  "key": {"mice [1]": {"tested_on": "mice", "assay": "Multiple (10 times) i.v. administrations: autonomous activity of mice", "format": "in vivo", "conditions": "10 consecutive i.v. injections, 75 mg/kg", "description": "Animals in each group were given the corresponding drug solution multiple times by the tail vein injection (i.v.) in accordance with the corresponding group, 0.1 ml per mouse each time, for ten times of consecutive injections (the administration group mice were injected when the righting reflex was recovered). Then the autonomous activity of mice was measured immediately and the recording time was 50 minutes. Data were expressed as mean±standard deviation."}, "mice [2]": {"tested_on": "mice", "assay": "Multiple (9 times) i.v. administrations: duration of disappearance of righting reflex in mice", "format": "in vivo", "conditions": "repeated i.v. administration, each dose group", "description": "Animals in each group were given the corresponding drug solution multiple times by the tail vein injection (i.v.) in accordance with the corresponding group, 0.1 ml per mouse each time, for 9 times of consecutive injections (the administration group mice were injected when the righting reflex was recovered). The durations of each disappearance of righting reflex were recorded, and the data was expressed as an average."}},
  "note": "Some results were stated once for a whole list of compounds, not compound by compound.",
  "data": [
    {"smiles": "COC(=O)CC[C@@H]1N=C(c2ccccn2)c2cc(F)c(C)cc2-n2c(C)cnc21.Cc1ccc(S(=O)(=O)O)cc1", "note": "[Compound 1-2]", "values": [
      {"measurement": "time after administration until autonomous activity returned to normal levels", "setting": "mice [1]", "value": "40 to 45", "unit": "min"},
      {"measurement": "number of consecutive administrations after which duration of righting reflex disappearance reached steady state", "setting": "mice [2]", "value": "6-7"}
    ]}
  ]
}
